# Measured values taken from paper PMC12431657, “Discovery and mechanistic insights of dibenzoylmethane as a broad spectrum inhibitor of coronavirus” (PLOS Pathogens, 2025).
# Counter-ions that a name gives are not always drawn. Like-named read-outs stand apart in the source and are kept apart here. About 95 (3%) of roughly 3,300 compounds showed an effect of 50% or more. This is one part of the list. Peptide text beside a SMILES is read from it.
# System: HCoV-229E
# Parameters: species or system Huh-7; HTS, protection from HCoV-229E induced cell death, luminescent cell viability (CellCounting-Lite 2.0), inhibition rate
# Details: 24 h post infection, 1 h compound pre-incubation, 10 µM, inhibitor
smiles,measurement,setting,value
C=C[C@H]1CN2CC[C@H]1C[C@H]2[C@H](O)c1ccnc2ccc(OC)cc12 [Quinine],229E Inhibition rate,"229E Inhibition rate, 24 h",49.1%
C[C@]12CC[C@H](O)C[C@H]1CC[C@@H]1[C@@H]2C[C@@H](O)[C@]2(C)[C@@H](C3=CC(=O)OC3)CC[C@]12O [Digoxigenin],229E Inhibition rate,,35%
COc1ccc(-c2coc3cc(O)ccc3c2=O)cc1 [Formononetin],229E Inhibition rate,,21.3%
CC(C)N(CCCCOCC(=O)O)c1cnc(-c2ccccc2)c(-c2ccccc2)n1 [MRE-269],229E Inhibition rate,,12.2%
CC1(C)CC[C@]2(C(=O)O)CC[C@]3(C)C(=CC[C@@H]4[C@@]5(C)CCC(=O)C(C)(C)[C@@H]5CC[C@]43C)[C@@H]2C1 [Oleanonic acid],229E Inhibition rate,,5.9%
OCC1=C[C@H](N[C@H]2C[C@H](CO)[C@@H](O[C@@H]3O[C@H](CO)[C@@H](O)[C@H](O)[C@H]3O)[C@H](O)[C@H]2O)[C@H](O)[C@@H](O)[C@@H]1O [Validamycin A],229E Inhibition rate,,13.2%
NC(=O)c1ccccc1O [Salicylamide],229E Inhibition rate,,27.2%
Cc1cccs1 [2-Methylthiophene],229E Inhibition rate,,21.5%
O=C(O)C(O)Cc1cc2ccccc2[nH]1 (centres unmarked) [Indolelactic acid],229E Inhibition rate,,16.7%
C/C=C1/CN2[C@H]3Cc4c([nH]c5ccccc45)[C@]2(O)C[C@@H]1[C@@]3(CO)C(=O)OC [16-Epivoacarpine],229E Inhibition rate,,7.1%
CC(C)=CCc1cc2ccc(=O)oc2cc1O [Demethylsuberosin],229E Inhibition rate,,7.5%
COc1cc2c(cc1OC)-c1c(C)c3ccc(OC)c(OC)c3c[n+]1CC2 [Dehydrocorydaline (nitrate)],229E Inhibition rate,"229E Inhibition rate, 24 h",10.5%
COc1cc2oc3cc(O)c(OC)c(CC=C(C)C)c3c(=O)c2c(O)c1CC=C(C)C [beta-Mangostin],229E Inhibition rate,,5%
COc1cc(O)c2c(=O)cc(-c3ccc(OC)c(-c4c(O)cc(O)c5c(=O)cc(-c6ccc(O)cc6)oc45)c3)oc2c1 [Ginkgetin],229E Inhibition rate,,64.4%
N[C@H](CC(=O)O)C(=O)O [(-)-Aspartic acid],229E Inhibition rate,,9.6%
CC(=O)[C@]1(O)Cc2c(O)c3c(c(O)c2[C@@H](O[C@H]2C[C@H](N)[C@H](O)[C@H](C)O2)C1)C(=O)c1c(O)cccc1C3=O [Carubicin (hydrochloride)],229E Inhibition rate,,4.3%
CC/C=C\C/C=C\C/C=C\C/C=C\C/C=C\CCCC(=O)O [Eicosapentaenoic Acid],229E Inhibition rate,,14.9%
C[C@]12CCC(=O)C=C1CC[C@@H]1[C@@H]2C(=O)C[C@@]2(C)[C@H]1CC[C@]2(O)C(=O)CO [Cortisone],229E Inhibition rate,,18.3%
OC1OC[C@@H](O)[C@@H](O)[C@@H]1O (stereo partly drawn) [D-Arabinose],229E Inhibition rate,"229E Inhibition rate, 24 h",21.5%
O=C(O)CCCCCCC[C@@H](O)[C@@H](O)CCCCCCO [Aleuritic acid],229E Inhibition rate,,8.8%
C[C@H](CCC(=O)O)[C@H]1CC[C@H]2[C@@H]3CC[C@@H]4C[C@H](O)CC[C@]4(C)[C@H]3C[C@H](O)[C@]12C [Deoxycholic acid sodium salt],229E Inhibition rate,"229E Inhibition rate, 24 h",36.6%
CN(C)[C@@H]1C(O)=C(C(N)=O)C(=O)[C@@]2(O)C(O)=C3C(=O)c4c(O)cccc4[C@@](C)(O)[C@H]3C[C@@H]12 [Tetracycline (hydrochloride)],229E Inhibition rate,,0%
C=C1C(=O)O[C@H]2[C@H]1CC[C@]1(C)O[C@@]13CC[C@@](C)(O)[C@H]23 [Epoxymicheliolide],229E Inhibition rate,,37%
N[C@@H](CCC(=O)O)C(=O)O [L-Glutamic acid],229E Inhibition rate,"229E Inhibition rate, 24 h",5.2%
O=c1cc(-c2ccccc2)oc2cc(O[C@@H]3O[C@H](CO[C@@H]4O[C@H](CO)[C@@H](O)[C@H](O)[C@H]4O)[C@@H](O)[C@H](O)[C@H]3O)c(O)c(O)c12 [Oroxin B],229E Inhibition rate,,35.5%
C[C@H](N)C(=O)N[C@@H](CCC(N)=O)C(=O)O [L-Alanyl-L-glutamine] (H-Ala-Gln-OH),229E Inhibition rate,,8.7%
"OCC(O)c1ccc(O)c(O)c1 (centres unmarked) [4-(1,2-Dihydroxyethyl)benzene-1,2-diol]",229E Inhibition rate,,0%
CCCCCCCCCCCCCCCCCC(=O)NCc1ccccc1 [N-Benzyloctadecanamide],229E Inhibition rate,,46.3%
C=CC(=C)CCC=C(C)C [Myrcene],229E Inhibition rate,,18.9%
CC[C@@H]1/C=C/C=C/C[C@H](C)[C@H](O)[C@](C)(O)C(=O)[C@H](C)[C@@H](O)[C@H](C)C(=O)[C@H](C)[C@@H](O)[C@H](C)/C=C/C(=O)O[C@H]2[C@@H](C)[C@@H](CC1)O[C@@]1(CC[C@@H](C)[C@@H](C[C@H](C)O)O1)[C@@H]2C [Oligomycin A],229E Inhibition rate,,4.2%
C[C@@H]1CC[C@H]2C(C)(C)[C@H]3C[C@@]12CC[C@@]3(C)O [Cedrol],229E Inhibition rate,,13.4%
COc1ccc2c3c1O[C@H]1C[C@@H](O)CC[C@]31CCN(C)C2 [Lycoramine],229E Inhibition rate,,33.8%
COc1c(O[C@@H]2O[C@H](C(=O)O)[C@@H](O)[C@H](O)[C@H]2O)cc2oc(-c3ccccc3)cc(=O)c2c1O [Oroxylin A-7-O-glucuronide],229E Inhibition rate,,7.4%
C[C@@H]1O[C@@H](OC[C@H]2O[C@@H](OCCc3ccc(O)c(O)c3)[C@H](O)[C@@H](O)[C@@H]2O)[C@H](O)[C@H](O)[C@H]1O [Forsythoside E],229E Inhibition rate,,34.8%
O=C1C[C@@H](c2ccc(O[C@@H]3O[C@H](CO)[C@@H](O)[C@H](O)[C@H]3O)cc2)Oc2cc(O)ccc21 [Liquiritin],229E Inhibition rate,,25.4%
CN(C)[C@@H]1C(O)=C(C(N)=O)C(=O)[C@@]2(O)C(O)=C3C(=O)c4c(O)cccc4[C@@](C)(O)[C@H]3[C@H](O)[C@@H]12 [Oxytetracycline (hydrochloride)],229E Inhibition rate,"229E Inhibition rate, 24 h",27.8%
CC(=O)OC/C=C(/C)CCC=C(C)C [Neryl acetate],229E Inhibition rate,,43.1%
CC[C@H]1OC(=O)[C@H](C)[C@@H](O[C@H]2C[C@@](C)(OC)[C@@H](O)[C@H](C)O2)[C@H](C)[C@@H](O[C@@H]2O[C@H](C)C[C@H](N(C)C)[C@H]2O)[C@](C)(O)C[C@@H](C)C(=O)[C@H](C)[C@@H](O)[C@]1(C)O [Erythromycin],229E Inhibition rate,,11.8%

# 3 records picked at random from those above, as already listed:
smiles,measurement,setting,value
CC[C@H]1OC(=O)[C@H](C)[C@@H](O[C@H]2C[C@@](C)(OC)[C@@H](O)[C@H](C)O2)[C@H](C)[C@@H](O[C@@H]2O[C@H](C)C[C@H](N(C)C)[C@H]2O)[C@](C)(O)C[C@@H](C)C(=O)[C@H](C)[C@@H](O)[C@]1(C)O [Erythromycin],229E Inhibition rate,,11.8%
C=C[C@H]1CN2CC[C@H]1C[C@H]2[C@H](O)c1ccnc2ccc(OC)cc12 [Quinine],229E Inhibition rate,"229E Inhibition rate, 24 h",49.1%
CC(C)=CCc1cc2ccc(=O)oc2cc1O [Demethylsuberosin],229E Inhibition rate,,7.5%
